Tested on: calf thymus DNA
Experiment: Absorption and emission spectra in the presence of DNA
Type: physicochemical
Settings: Dye 1 uM, 40 ug/mL calf thymus DNA

Which results are given for `CN(C)CCNc1ccc(O)c2c1C(=O)c1c(O)ccc(NCCNC(=N)CCCCC(=N)NCCNc3ccc(O)c4c3C(=O)c3c(O)ccc(NCCN(C)C)c3C4=O)c1C2=O` [Dye No. 7]?
absorption spectrum (excitability): excitable by common laser lines at 633, 635, 640 and 647 nm; fluorescence emission region: far-red to near-IR region
